# Measured values published in the supplement of paper PMC8728848.
# The other results are listed elsewhere or left out.
# B1: Protein L(A-C2) (Finegoldia magna), Q51912 (protein)
# chain: ADEPIDLEKLEEKRDKENVGNLPKFDNEVKDGSENPMAKYPDFDDEASTRFETENNEFEEKKVVSDNFFDQSEHPFVENKEETPETPETDSEEEVTIKANLIFANGSTQTAEFKGTFEKATSEAYAYADTLKKDNGEYTVDVADKGYTLNIKFAGKEKTPEEPKEEVTIKANLIYADGKTQTAEFKGTFEEATAEAYRYADALKKDNGEYTVDVADKGYTLNIKFAGKEKTPEEPKEEVTIKANLIYADGKTQTAEFKGTFEEATAEAYRYADLLAKENGKYTVDVADKGYTLNIKFAGKEKTPEEPKEEVTIKANLIYADGKTQTAEFKGTFAEATAEAYRYADLLAKENGKYTADLEDGGYTINIRFAGKKVDEKPEEKEQVTIKENIYFEDGTVQTATFKGTFAEATAEAYRYADLLSKEHGKYTADLEDGGYTINIRFAGKEEPEETPEKPEVQDGYASYEEAEAAAKEALKNDDVNKSYTIRQGADGRYYYVLSPVEAEEEKPEAQNGYATYEEAEAAAKKALENDPINKSYSIRQGADGRYYYVLSPVEAE
# Tests used:
# Experiment in all cases: glycan array binding signal (z-score within array); higher = stronger binding
# Conditions in all cases: glycan notation: IUPAC condensed, linker removed
# [1] = molecular target: Gal(b1-4)GlcNAc(b1-3)Gal(b1-4)GlcNAc(b1-2)[Gal(b1-4)GlcNAc(b1-3)Gal(b1-4)GlcNAc(b1-6)]Man(a1-6)[Gal(b1-4)GlcNAc(b1-3)Gal(b1-4)GlcNAc(b1-2)Man(a1-3)]Man(b1-4)GlcNAc(b1-4)GlcNAc
# How it was run: (§1)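 The binding signal is a Z-score computed within each array. Data were drawn from 3228 arrays in the Consortium for Functional Glycomics database, restricted to those with a known protein sequence. Scores were averaged over arrays of the same protein sequence at different concentrations or buffers, and over linkers, and negative values can be taken as non-binding.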
# [2] = molecular target: Gal(b1-4)GlcNAc(b1-3)Gal(b1-4)GlcNAc(b1-2)[Gal(b1-4)GlcNAc(b1-3)Gal(b1-4)GlcNAc(b1-6)]Man(a1-6)[Gal(b1-4)GlcNAc(b1-3)Gal(b1-4)GlcNAc(b1-2)Man(a1-3)]Man(b1-4)GlcNAc(b1-4)[Fuc(a1-6)]GlcNAc
# How it was run: as §1
# [3] = molecular target: Gal(b1-4)GlcNAc(b1-3)Gal(b1-4)GlcNAc(b1-3)Gal(b1-4)GlcNAc
# How it was run: as §1
# [4] = molecular target: Gal(b1-4)GlcNAc(b1-3)Gal(b1-4)GlcNAc(b1-3)Gal(b1-4)GlcNAc(b1-2)Man(a1-3)[Gal(b1-4)GlcNAc(b1-3)Gal(b1-4)GlcNAc(b1-3)Gal(b1-4)GlcNAc(b1-2)Man(a1-6)]Man(b1-4)GlcNAc(b1-4)GlcNAc
# How it was run: as §1
# [5] = molecular target: Gal(b1-4)GlcNAc(b1-3)Gal(b1-4)GlcNAc(b1-3)Gal(b1-4)GlcNAc(b1-2)Man(a1-3)[Gal(b1-4)GlcNAc(b1-3)Gal(b1-4)GlcNAc(b1-3)Gal(b1-4)GlcNAc(b1-2)Man(a1-6)]Man(b1-4)GlcNAc(b1-4)[Fuc(a1-6)]GlcNAc
# How it was run: as §1
# [6] = molecular target: Gal(b1-4)GlcNAc(b1-3)Gal(b1-4)GlcNAc(b1-3)Gal(b1-4)GlcNAc(b1-2)[Gal(b1-4)GlcNAc(b1-3)Gal(b1-4)GlcNAc(b1-3)Gal(b1-4)GlcNAc(b1-6)]Man(a1-6)[Gal(b1-4)GlcNAc(b1-3)Gal(b1-4)GlcNAc(b1-3)Gal(b1-4)GlcNAc(b1-2)Man(a1-3)]Man(b1-4)GlcNAc(b1-4)[Fuc(a1-6)]GlcNAc
# How it was run: as §1
# [7] = molecular target: Gal(b1-4)GlcNAc(b1-3)Gal(b1-4)GlcNAc(b1-3)Gal(b1-4)GlcNAc(b1-3)Gal(b1-4)GlcNAc(b1-2)Man(a1-3)[Gal(b1-4)GlcNAc(b1-3)Gal(b1-4)GlcNAc(b1-3)Gal(b1-4)GlcNAc(b1-3)Gal(b1-4)GlcNAc(b1-2)Man(a1-6)]Man(b1-4)GlcNAc(b1-4)GlcNAc
# How it was run: as §1
# [8] = molecular target: Gal(b1-4)GlcNAc(b1-3)Gal(b1-4)GlcNAc(b1-3)Gal(b1-4)GlcNAc(b1-3)Gal(b1-4)GlcNAc(b1-2)Man(a1-3)[Gal(b1-4)GlcNAc(b1-3)Gal(b1-4)GlcNAc(b1-3)Gal(b1-4)GlcNAc(b1-3)Gal(b1-4)GlcNAc(b1-2)Man(a1-6)]Man(b1-4)GlcNAc(b1-4)[Fuc(a1-6)]GlcNAc
# How it was run: as §1
# [9] = molecular target: Gal(b1-4)GlcNAc(b1-3)Gal(b1-4)GlcNAc(b1-3)Gal(b1-4)GlcNAc(b1-3)Gal(b1-4)GlcNAc(b1-2)[Gal(b1-4)GlcNAc(b1-3)Gal(b1-4)GlcNAc(b1-3)Gal(b1-4)GlcNAc(b1-3)Gal(b1-4)GlcNAc(b1-6)]Man(a1-6)[Gal(b1-4)GlcNAc(b1-3)Gal(b1-4)GlcNAc(b1-3)Gal(b1-4)GlcNAc(b1-3)Gal(b1-4)GlcNAc(b1-2)Man(a1-3)]Man(b1-4)GlcNAc(b1-4)[Fuc(a1-6)]GlcNAc
# How it was run: as §1
# [10] = molecular target: Gal(b1-4)GlcNAc(b1-3)Gal(b1-4)GlcNAc(b1-3)Gal(b1-4)GlcNAc(b1-3)Gal(b1-4)GlcNAc(b1-3)Gal(b1-4)GlcNAc(b1-2)Man(a1-3)[Gal(b1-4)GlcNAc(b1-3)Gal(b1-4)GlcNAc(b1-3)Gal(b1-4)GlcNAc(b1-3)Gal(b1-4)GlcNAc(b1-3)Gal(b1-4)GlcNAc(b1-2)Man(a1-6)]Man(b1-4)GlcNAc(b1-4)GlcNAc
# How it was run: as §1
# [11] = molecular target: Gal(b1-4)GlcNAc(b1-3)Gal(b1-4)GlcNAc(b1-3)Gal(b1-4)GlcNAc(b1-3)Gal(b1-4)GlcNAc(b1-3)Gal(b1-4)GlcNAc(b1-2)Man(a1-3)[Gal(b1-4)GlcNAc(b1-3)Gal(b1-4)GlcNAc(b1-3)Gal(b1-4)GlcNAc(b1-3)Gal(b1-4)GlcNAc(b1-3)Gal(b1-4)GlcNAc(b1-2)Man(a1-6)]Man(b1-4)GlcNAc(b1-4)[Fuc(a1-6)]GlcNAc
# How it was run: as §1
# [12] = molecular target: Gal(b1-4)GlcNAc(b1-3)Gal(b1-4)GlcNAc(b1-3)Gal(b1-4)GlcNAc(b1-3)Gal(b1-4)GlcNAc(b1-3)Gal(b1-4)GlcNAc(b1-2)[Gal(b1-4)GlcNAc(b1-3)Gal(b1-4)GlcNAc(b1-3)Gal(b1-4)GlcNAc(b1-3)Gal(b1-4)GlcNAc(b1-3)Gal(b1-4)GlcNAc(b1-6)]Man(a1-6)[Gal(b1-4)GlcNAc(b1-3)Gal(b1-4)GlcNAc(b1-3)Gal(b1-4)GlcNAc(b1-3)Gal(b1-4)GlcNAc(b1-3)Gal(b1-4)GlcNAc(b1-2)Man(a1-3)]Man(b1-4)GlcNAc(b1-4)[Fuc(a1-6)]GlcNAc
# How it was run: as §1
# [13] = molecular target: Gal(b1-4)GlcNAc(b1-3)Gal(b1-4)GlcNAc(b1-3)Gal(b1-4)GlcNAc(b1-3)Gal(b1-4)GlcNAc(b1-3)Gal(b1-4)GlcNAc(b1-3)Gal(b1-4)GlcNAc(b1-2)Man(a1-3)[Gal(b1-4)GlcNAc(b1-3)Gal(b1-4)GlcNAc(b1-3)Gal(b1-4)GlcNAc(b1-3)Gal(b1-4)GlcNAc(b1-3)Gal(b1-4)GlcNAc(b1-3)Gal(b1-4)GlcNAc(b1-2)Man(a1-6)]Man(b1-4)GlcNAc(b1-4)GlcNAc
# How it was run: as §1
# [14] = molecular target: Gal(b1-4)GlcNAc(b1-3)Gal(b1-4)GlcNAc(b1-3)GalNAc
# How it was run: as §1
# [15] = molecular target: Gal(b1-4)GlcNAc(b1-3)Gal(b1-4)GlcNAc(b1-3)[Gal(b1-4)GlcNAc(b1-3)Gal(b1-4)GlcNAc(b1-6)]GalNAc
# How it was run: as §1
# [16] = molecular target: Gal(b1-4)GlcNAc(b1-3)Gal(b1-4)GlcNAc(b1-6)[Gal(b1-3)]GalNAc
# How it was run: as §1
# [17] = molecular target: Gal(b1-4)GlcNAc(b1-3)Gal(b1-4)[Fuc(a1-3)]GlcNAc(b1-3)Gal(b1-4)[Fuc(a1-3)]GlcNAc
# How it was run: as §1
# [18] = molecular target: Gal(b1-4)GlcNAc(b1-3)GalNAc
# How it was run: as §1
# [19] = molecular target: Gal(b1-4)GlcNAc(b1-3)[Fuc(a1-3)GlcNAc(b1-6)]Gal(b1-4)Glc
# How it was run: as §1
# [20] = molecular target: Gal(b1-4)GlcNAc(b1-3)[Gal(b1-4)GlcNAc(b1-6)]Gal(b1-4)GlcNAc
# How it was run: as §1
# [21] = molecular target: Gal(b1-4)GlcNAc(b1-3)[GlcNAc(b1-6)]Gal(b1-4)GlcNAc
# How it was run: as §1
# [22] = molecular target: Gal(b1-4)GlcNAc(b1-6)Gal(b1-4)GlcNAc
# How it was run: as §1
# [23] = molecular target: Gal(b1-4)GlcNAc(b1-6)GalNAc
# How it was run: as §1
# [24] = molecular target: Gal(b1-4)GlcNAc(b1-6)[Gal(b1-3)]GalNAc
# How it was run: as §1
# [25] = molecular target: Gal(b1-4)GlcNAc(b1-6)[Gal(b1-4)GlcNAc(b1-3)]GalNAc
# How it was run: as §1
# [26] = molecular target: Gal(b1-4)GlcNAc6P
# How it was run: as §1
# [27] = molecular target: Gal(b1-6)Gal
# How it was run: as §1
# [28] = molecular target: Gal3S(b1-3)GalNAc
# How it was run: as §1
# [29] = molecular target: Gal3S(b1-3)GlcNAc
# How it was run: as §1
# [30] = molecular target: Gal3S(b1-3)[Fuc(a1-4)]GlcNAc
# How it was run: as §1
binder,measurement,setting,value
B1,glycan array binding signal (z-score),[1],1.35
same,glycan array binding signal (z-score),[2],1.42
same,glycan array binding signal (z-score),[3],-0.614
same,glycan array binding signal (z-score),[4],3.21
same,glycan array binding signal (z-score),[5],1.11
same,glycan array binding signal (z-score),[6],0.368
same,glycan array binding signal (z-score),[7],0.959
same,glycan array binding signal (z-score),[8],0.473
same,glycan array binding signal (z-score),[9],2.27
same,glycan array binding signal (z-score),[10],0.151
same,glycan array binding signal (z-score),[11],0.748
same,glycan array binding signal (z-score),[12],1.8
same,glycan array binding signal (z-score),[13],0.653
same,glycan array binding signal (z-score),[14],0.97
same,glycan array binding signal (z-score),[15],1.95
same,glycan array binding signal (z-score),[16],3.67
same,glycan array binding signal (z-score),[17],0.086
same,glycan array binding signal (z-score),[18],-0.961
same,glycan array binding signal (z-score),[19],0.308
same,glycan array binding signal (z-score),[20],-1.01
same,glycan array binding signal (z-score),[21],-0.783
same,glycan array binding signal (z-score),[22],-1.04
same,glycan array binding signal (z-score),[23],-0.23
same,glycan array binding signal (z-score),[24],-0.544
same,glycan array binding signal (z-score),[25],0.282
same,glycan array binding signal (z-score),[26],-0.881
same,glycan array binding signal (z-score),[27],0.608
same,glycan array binding signal (z-score),[28],-0.97
same,glycan array binding signal (z-score),[29],-0.286
same,glycan array binding signal (z-score),[30],1.09

# Part of the list above, bar-delimited.
binder | measurement | setting | value
B1 | glycan array binding signal (z-score) | [24] | -0.544
same | glycan array binding signal (z-score) | [25] | 0.282
